System: violacein production of C. violaceum CVO26
Assay: Quorum sensing bioassay: violacein production
Type: cell-based, Chromobacterium violaceum
Details: IC50 for growth inhibition / IC50 for violacein inhibition
Experimental: The reporter strain C. violaceum CVO26 (CECT 5999) was used to screen the ability of the products to interfere with violacein production, a QS-regulated phenotype. C. violaceum CVO26 is a mini-Tn5 mutant that depends on an exogenous source of autoinducer (AI) (N-hexanoyl homoserine lactone, HHL) for violacein production. C. violaceum CVO26 was cultured in LB broth (Sigma-Aldrich) supplemented with 25 μg ml^-1 kanamycin. Inocula were prepared by dilution (1:100) of an overnight culture of the reporter strain [49]. One hundred microliters of inoculum with HHL (Sigma-Aldrich, 6 μM) or without the AI were added to 96-well plates containing 100 μl of the appropriate dilutions of the test products in LB. Thus, two sets of plates were prepared. One set of plates (without HHL) was used to evaluate the effect of the products on bacterial growth, whereas the other set of plates (with HHL) was used to evaluate their effect on violacein production. Both sets of plates were incubated at 30 °C with agitation (150 rpm) for 18 h.
Growth inhibition was quantified in the first batch of plates by re-suspending bacterial pellets and measuring the OD625. From the second batch of plates violacein was extracted and quantified. Briefly, the plates were dried overnight (60 °C) and violacein was re-solubilized by the addition of 200 μl of DMSO. The plates were shaken for 3 h and then the OD590 was determined.
To evaluate the effect of the alkyl triphenylphosphonium salts on QS-regulated phenotypes, an initial screening at the cut-off concentration of 100 μM was conducted with C. violaceum CVO26. The QS model of C. violaceum is relatively simple and consists of an acyl-homoserine lactone synthase (CviI) that produces the AI molecule N-hexanoyl homoserine lactone (HHL, strain ATCC 31532), or N-3-hydroxydecanoyl homoserine lactone (strain ATCC 12472) which is recognized by the cytoplasmic receptor CviR (Fig 4). The reporter strain CVO26 is a CviI::mini-Tn5 mutant of strain ATCC 31532 and thus recognizes HHL. CviR is a DNA-binding transcription factor that activates the expression of the genes encoding the production of violacein, the characteristic purple alkaloid that gives name to the species.
Indeed, the inhibitions observed in violacein production for long alkyl chains (10–18, 20) were clearly correlated to the biocidal effect exerted by these compounds, with ‘therapeutic ratios’ (IC50 for growth inhibition/IC50 for violacein inhibition) around 1, in general (Table 2). Note that, as the length of the hydrocarbon chain becomes shorter, this ratio increased (8–9). […] To evaluate these compounds in further detail, […] stock solutions were prepared […] to avoid the use of high concentrations of DMSO in the bioassays. […] Serial two-fold dilutions (500–3.9 μM) were assayed. Consequently, the highest amount of DMSO used in the assay was 0.25% (v/v). […] Growth inhibitory effects are only observed at 500 μM, particularly for compound 7 (Fig 6D).

## C/C=C/C[P+](c1ccccc1)(c1ccccc1)c1ccccc1 [Compound 3]
  Ratio (GI/VI): >5.4

## BrCCCC[P+](c1ccccc1)(c1ccccc1)c1ccccc1 [Compound 4]
  Ratio (GI/VI): >3.5

## CCCCN[P+](c1ccccc1)(c1ccccc1)c1ccccc1 [Compound 5]
  Ratio (GI/VI): >3.7

## CCCCC[P+](c1ccccc1)(c1ccccc1)c1ccccc1 [Compound 7]
  Ratio (GI/VI): >9.5

## CCCCCCC[P+](c1ccccc1)(c1ccccc1)c1ccccc1 [Compound 8, heptyl triphenylphosphonium bromide]
  Ratio (GI/VI): 2.8

## CCCCCCCCC[P+](c1ccccc1)(c1ccccc1)c1ccccc1 [Compound 9]
  Ratio (GI/VI): 2.1

## CCCCCCCCCC[P+](c1ccccc1)(c1ccccc1)c1ccccc1 [Compound 10]
  Ratio (GI/VI): 1.6

## CCCCCCCCCCC[P+](c1ccccc1)(c1ccccc1)c1ccccc1 [Compound 11]
  Ratio (GI/VI): 1.4

## CCCCCCCCCCCC[P+](c1ccccc1)(c1ccccc1)c1ccccc1 [Compound 12]
  Ratio (GI/VI): 1.6

## CCCCCCCCCCCCC[P+](c1ccccc1)(c1ccccc1)c1ccccc1 [Compound 13]
  Ratio (GI/VI): 0.8

## CCCCCCCCCCCCCC[P+](c1ccccc1)(c1ccccc1)c1ccccc1 [Compound 14]
  Ratio (GI/VI): 0.5

## CCCCCCCCCCCCCCC[P+](c1ccccc1)(c1ccccc1)c1ccccc1 [Compound 15]
  Ratio (GI/VI): 2.2

## CCCCCCCCCCCCCCCC[P+](c1ccccc1)(c1ccccc1)c1ccccc1 [Compound 16]
  Ratio (GI/VI): 0.8

## CCCCCCCCCCCCCCCCCC[P+](c1ccccc1)(c1ccccc1)c1ccccc1 [Compound 17]
  Ratio (GI/VI): 1.0

## CCCCCCCCCCCCCCCCCCC[P+](c1ccccc1)(c1ccccc1)c1ccccc1 [Compound 18]
  Ratio (GI/VI): 1.1

## c1ccc([P+](CCCCCCCCCCCC[P+](c2ccccc2)(c2ccccc2)c2ccccc2)(c2ccccc2)c2ccccc2)cc1 [Compound 20]
  Ratio (GI/VI): 0.8

Source: paper PMC4405350, “From Broad-Spectrum Biocides to Quorum Sensing Disruptors and Mussel Repellents: Antifouling Profile of Alkyl Triphenylphosphonium Salts” (PLoS ONE, 2015)
